According to PubChem BioAssay AID1117319 (Southern Research Institute, 2015):
The campaign covered roughly 260,000 compounds. About 1,500 (0.58%) were called active. Inconclusive results, whose numbers are uncertain, are shown with a selection of clear calls.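 Rule for the calls: active = inhibition above a set limit at one or more doses, reproduced on every date tested; inconclusive = results disagree between test dates, or hit never tested in dose response; inactive = the rest.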

Sequences of proteins named here, by UniProt entry; tags and fusion partners are left off. A change or cut given only in a name is not applied to a line headed by its entry.
UniProt P69720: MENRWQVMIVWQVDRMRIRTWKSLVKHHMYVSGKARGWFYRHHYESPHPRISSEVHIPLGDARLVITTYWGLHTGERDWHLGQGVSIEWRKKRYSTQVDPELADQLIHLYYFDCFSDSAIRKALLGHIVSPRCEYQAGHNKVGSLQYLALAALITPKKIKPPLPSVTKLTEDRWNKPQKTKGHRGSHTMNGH
UniProt P69721: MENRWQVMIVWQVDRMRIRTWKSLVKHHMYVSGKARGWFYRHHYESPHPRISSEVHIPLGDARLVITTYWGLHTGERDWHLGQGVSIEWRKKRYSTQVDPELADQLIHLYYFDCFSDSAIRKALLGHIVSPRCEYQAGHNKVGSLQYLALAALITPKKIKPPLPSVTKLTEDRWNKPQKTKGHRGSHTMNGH
UniProt P69722: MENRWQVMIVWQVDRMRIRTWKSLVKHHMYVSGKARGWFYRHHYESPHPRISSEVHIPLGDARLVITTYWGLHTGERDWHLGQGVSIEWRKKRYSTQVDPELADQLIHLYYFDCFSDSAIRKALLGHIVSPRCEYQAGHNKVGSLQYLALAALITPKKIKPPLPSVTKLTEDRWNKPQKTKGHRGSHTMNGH
UniProt P69723: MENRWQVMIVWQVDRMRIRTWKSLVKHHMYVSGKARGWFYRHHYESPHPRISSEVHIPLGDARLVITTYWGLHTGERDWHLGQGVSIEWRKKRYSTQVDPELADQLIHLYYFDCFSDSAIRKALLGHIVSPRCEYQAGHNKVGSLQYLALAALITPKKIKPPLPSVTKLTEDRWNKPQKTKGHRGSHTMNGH
UniProt Q9HC16: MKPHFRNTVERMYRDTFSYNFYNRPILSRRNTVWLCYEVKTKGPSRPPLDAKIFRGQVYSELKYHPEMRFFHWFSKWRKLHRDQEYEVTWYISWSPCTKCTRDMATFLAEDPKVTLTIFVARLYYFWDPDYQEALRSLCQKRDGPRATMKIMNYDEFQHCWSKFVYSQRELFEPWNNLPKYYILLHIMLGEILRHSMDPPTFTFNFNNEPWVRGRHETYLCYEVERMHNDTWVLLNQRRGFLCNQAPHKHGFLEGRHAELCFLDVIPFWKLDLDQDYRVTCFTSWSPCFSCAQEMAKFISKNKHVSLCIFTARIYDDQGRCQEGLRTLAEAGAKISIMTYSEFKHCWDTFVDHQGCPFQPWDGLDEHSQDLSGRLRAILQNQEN

Target: Virion infectivity factor (Human immunodeficiency virus type 1 group M subtype B (isolate BH10)) + Virion infectivity factor (Human immunodeficiency virus type 1 group M subtype B (isolate BRU/LAI)) + Virion infectivity factor (Human immunodeficiency virus type 1 group M subtype B (isolate PCV12)) + Virion infectivity factor (Human immunodeficiency virus type 1 group M subtype B (isolate HXB2)) + DNA dC->dU-editing enzyme APOBEC-3G (Homo sapiens) (UniProt P69720+P69721+P69722+P69723+Q9HC16)
Experiment: inhibitors of Vif binding to APOBEC3G peptide, primary screen, biochemical, TR-FRET, GST-Vif 1-94, biotin-A3G peptide, dose response retest (AID 1117319);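 note: Vif residues 1-94 fused to GST binding biotinylated APOBEC3G peptide 110-148; 0% = full assay without inhibitor and 100% = GST in place of GST-Vif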
Details: hits give high values

Structure (SMILES)	inhibition
COc1ccc(/C=C/C(=O)c2ccccc2O)cc1CN1CCOCC1	inconclusive: 34%
CS(=O)(=O)N(CC(N)=O)c1ccc2c(c1)OCO2	inconclusive: 61.9%
COc1ccc(OCC(=O)Nc2ccc(OC)c(S(=O)(=O)N3CCCCC3)c2)cc1	inactive: -0.4%
Cc1cc(C(=O)CCl)c(C)n1Cc1ccco1	inconclusive: 59.4%
CC(=O)Nc1ccc(OC(=O)N2CCCC2)cc1	inconclusive: 49.8%
COc1ccc(CCNC(=O)c2ccc(NS(=O)(=O)c3c(C)noc3C)cc2)cc1OC	inactive: -8.32%
CN(C)C(CNC(=O)c1cc(S(=O)(=O)N(C)c2ccccc2)ccc1Cl)c1cccs1 (centres undefined)	inconclusive: 37.5%
CCOc1ccc(C2c3c(oc4cc(C)c(C)cc4c3=O)C(=O)N2CCCN(C)C)cc1OC (centres undefined)	inconclusive: 31.5%
COCCNC(=S)N/N=C(\C)CCc1ccc2c(c1)OCO2	inactive: 3.32%
Cc1cccc(NC(=S)N(CCCN2CCOCC2)Cc2cn(C)c3ccccc23)c1	inconclusive: 43.6%
COc1ccc(CC(=O)Nc2ccc(N3CCN(c4ccc(OC)cc4)CC3)c(C#N)c2)cc1	inconclusive: 34.8%
CCOc1ccc(NCCC#N)cc1	inactive: -2.11%
Cc1ccc(S(=O)(=O)N(C(=O)c2ccncc2)c2ccc3oc4c(c3c2)CCCC4)cc1[N+](=O)[O-]	inactive: -4.21%
COc1cccc(C(c2nnnn2Cc2ccco2)N2CCN(c3cccc(C)c3C)CC2)c1OC (centres undefined)	inconclusive: 35%
COc1cc2c(cc1NCc1ccccn1)oc1ccccc12	inconclusive: 41.5%
Cc1cc(=O)oc2cc(OCC#N)ccc12	inconclusive: 61.6%
Cc1cccc(OCc2nnc(NC(=O)c3cccs3)s2)c1	inconclusive: 46.3%
Cc1ccc(-n2cc(CN3CCCN(C=O)CC3)c(-c3ccc(F)cc3)n2)cc1	inconclusive: 46.9%
CCC[N+](C)(C)C(C)C(OC(C)=O)c1ccccc1 (centres undefined)	inconclusive: 59.9%
O=C(CSc1nnc(-c2cccnc2)n1Cc1ccco1)NCc1ccc2c(c1)OCO2	inconclusive: 33%

As entered above:
In inhibition, Cc1cccc(OCc2nnc(NC(=O)c3cccs3)s2)c1 has the entry inconclusive: 46.3%
In inhibition, Cc1ccc(S(=O)(=O)N(C(=O)c2ccncc2)c2ccc3oc4c(c3c2)CCCC4)cc1[N+](=O)[O-] has the entry inactive: -4.21%
In inhibition, COc1cccc(C(c2nnnn2Cc2ccco2)N2CCN(c3cccc(C)c3C)CC2)c1OC (centres undefined) has the entry inconclusive: 35%

(listing goes on)

Structure (SMILES)	inhibition
CC1(C)CC(NC(=O)C(=O)NCCc2ccccc2)CC(C)(C)N1	inconclusive: 43.2%
CN(CCO)c1nc(N)c2c(N)nc3c(c2c1C#N)CC(=O)N3C1CCCC1	inconclusive: 47.2%
COc1cc(NC(=O)c2ccc(Cl)cc2)c(OC)cc1Cl	inconclusive: 54.7%
CCCS(=O)(=O)N1CCCC(C(=O)NCC2CCCO2)C1 (centres undefined)	inconclusive: 54.6%
COc1ccc(Cc2noc(CN3CCNC(=O)CC3)n2)cc1OC	inactive: 3.31%
CCc1ccc(NC(=O)CSc2nc(CSc3ccc(C)cc3)cc(=O)[nH]2)cc1	inconclusive: 43.2%
O=C1C2CC=C(Cl)CC2C(=O)N1CCCCCCN1C(=O)C2CC=C(Cl)CC2C1=O (centres undefined)	inconclusive: 34.8%
NCCCC(N)(C(=O)O)C(F)F (centres undefined)	inconclusive: 42.9%
CCOc1ccc(Nc2nc(Cc3nnc(SCC(N)=O)o3)cs2)cc1	inconclusive: 58.3%
Cc1ccc(/C=[N+](\[O-])c2ccc(N(C)C)cc2)c2nsnc12	inconclusive: 42.5%
Cn1nnnc1SCc1cc(=O)n2ccsc2n1	inactive: 8.97%
CCOC(=O)C1(Cc2cccc(F)c2)CCN(Cc2ccc(COC)o2)CC1	inconclusive: 37.9%
Cc1cc(C)n(C(=O)CNC(=O)COc2ccccc2)n1	inconclusive: 38.8%
Cc1ccc(N2C(N)=C(C#N)C(c3cccnc3)C3=C2CCCC3=O)cc1 (centres undefined)	inconclusive: 61%
S=C1NCN(C2CCCCC2)CN1Cc1ccccc1	inconclusive: 34.7%
OCc1cn(-c2ccccc2)nc1-c1ccc(-c2nn(-c3ccccc3)cc2CO)cc1	inconclusive: 37.6%
CCOc1ccccc1N(CC(=O)Nc1cccnc1)S(C)(=O)=O	inconclusive: 42%
CSc1ccc(S(=O)(=O)Nc2ccc(F)cc2)cc1	inconclusive: 38.8%
C/C(=N\NC(=S)Nc1cccc(C)c1)c1ccco1	inconclusive: 33.3%
CCOC(=O)N1CCN(c2c(N3CCN(c4ccccc4F)CC3)c(=O)c2=O)CC1	inconclusive: 35.9%

Structure (SMILES)	inhibition
Cc1cc(=O)n(-c2ccc3ccccc3n2)[nH]1	inconclusive: 56.9%
CCn1cnc2cc(NCc3ccncc3)ccc21	inactive: 18.7%
O=C(COC(=O)CN=C1NS(=O)(=O)c2ccccc21)Nc1ccccc1OC(F)F	inconclusive: 34.5%
COc1ccccc1N1CCN(C(=O)c2cc3sccc3n2C)CC1	inconclusive: 37.4%
COc1ccccc1NC(=O)CN1CCN(c2ccccn2)CC1	inconclusive: 45.6%
Cc1ccc(/C=C2\Oc3c(ccc(O)c3CN3CCN(CCO)CC3)C2=O)cc1	inactive: -6.62%
Cc1ccc(C)n1NC(=O)c1ccco1	inconclusive: 43.6%
CCC12CCCN3CCc4c(n(c5ccccc45)C(O)(C(=O)OC)C1)C32 (centres undefined)	inconclusive: 44.4%
CC(C)CCNC(=O)c1ccc(Cl)c(N)c1	inconclusive: 64.2%
CSc1ccccc1NC(=O)CN(C)S(=O)(=O)c1ccc(F)cc1	inconclusive: 36.2%
O=C(Cc1ccccc1)Nc1ccccc1CO	inconclusive: 35.2%
O=C(C1=C(O)/C(=C/c2ccc(O)cc2)CCC1)C(F)(F)F	inconclusive: 39.7%
Cc1cccc2nc(-c3ccco3)c(Nc3ccccc3)n12	inconclusive: 43%
N#CC12C(N)=NC3(OCCO3)C1(C#N)C1=C(CCC1)NC2c1ccccc1 (centres undefined)	inconclusive: 33.9%
N#Cc1ccc2c(c1)nc1ccccn12	inactive: 16.5%
CN(C)c1ccc(C(=O)Nc2ccc(O)c3c(=O)cc(-c4ccccc4Cl)oc23)cc1	inconclusive: 37.8%
Cc1ccccc1Nc1ncccc1C(=O)N1CCOCC1	inconclusive: 37.1%
CC(=C/c1ccccc1)/C=C1/SC(N2CCOCC2)=NC1=O	inconclusive: 49.1%
CCc1ccc2[nH]c(=O)c(C(c3nnnn3CC3CCCO3)N3CCCc4ccccc43)cc2c1 (centres undefined)	inconclusive: 54%
